The results in this text go back to article PMC4605302.

Protein sequences, listed by entry. Tags and fused reporters are not part of them. Lines headed by an entry give the natural chain unless they say otherwise; changes in a name come on top.
UniProt P49956: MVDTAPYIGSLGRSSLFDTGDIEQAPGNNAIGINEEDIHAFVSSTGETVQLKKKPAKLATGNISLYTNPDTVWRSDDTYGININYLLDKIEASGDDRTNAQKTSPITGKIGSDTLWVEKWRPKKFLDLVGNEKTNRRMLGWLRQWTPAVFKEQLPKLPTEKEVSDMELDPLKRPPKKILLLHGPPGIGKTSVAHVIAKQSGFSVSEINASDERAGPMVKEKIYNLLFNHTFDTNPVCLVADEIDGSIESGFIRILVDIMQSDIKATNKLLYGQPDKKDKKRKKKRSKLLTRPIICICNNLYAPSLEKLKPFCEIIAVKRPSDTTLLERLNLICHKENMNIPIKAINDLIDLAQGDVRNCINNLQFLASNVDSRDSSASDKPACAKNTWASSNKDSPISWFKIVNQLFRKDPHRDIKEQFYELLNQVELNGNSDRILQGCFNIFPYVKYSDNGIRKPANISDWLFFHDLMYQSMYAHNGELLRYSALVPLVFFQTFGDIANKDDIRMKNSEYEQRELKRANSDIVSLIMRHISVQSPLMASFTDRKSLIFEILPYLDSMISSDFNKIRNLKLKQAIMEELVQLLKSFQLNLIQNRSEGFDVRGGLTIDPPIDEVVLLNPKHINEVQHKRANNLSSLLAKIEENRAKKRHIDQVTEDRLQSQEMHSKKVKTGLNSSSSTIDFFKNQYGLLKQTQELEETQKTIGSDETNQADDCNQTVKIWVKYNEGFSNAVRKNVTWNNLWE

Results are given in words; binding and its absence hold for the method and conditions named. A result given as binding can be weak or reduced; the word gives no strength. Where a sequence is shown, tags or fusion partners need not be part of it.

The assay addresses T1, Dcc1 (two-hybrid fusion) (S. cerevisiae) (UniProt P25559).
T1 sequence: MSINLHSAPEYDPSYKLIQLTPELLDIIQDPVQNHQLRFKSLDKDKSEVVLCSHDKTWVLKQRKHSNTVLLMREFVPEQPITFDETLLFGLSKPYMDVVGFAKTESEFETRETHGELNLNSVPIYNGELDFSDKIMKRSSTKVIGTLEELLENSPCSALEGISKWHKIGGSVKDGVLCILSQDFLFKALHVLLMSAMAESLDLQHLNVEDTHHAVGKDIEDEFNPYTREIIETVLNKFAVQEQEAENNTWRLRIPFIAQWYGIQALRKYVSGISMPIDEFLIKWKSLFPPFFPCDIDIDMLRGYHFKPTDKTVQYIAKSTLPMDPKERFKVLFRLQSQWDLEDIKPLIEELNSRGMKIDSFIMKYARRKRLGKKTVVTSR
Description: two-hybrid; Gal4-based, pGADT7 and pGBKT7 derivatives in the wild type strain PJ69–4A; growth on SC medium lacking tryptophan, leucine and histidine.
As for “Ctf18 A729G (two-hybrid fusion) (from UniProt P49956)”, the binding result was “binds”.

Consider “Ctf18 A729T (two-hybrid fusion) (from UniProt P49956)”, for which the binding result is listed as “binds”.

In the case of “Ctf18 E741A (two-hybrid fusion) (from UniProt P49956)”, the binding entry is “binds”.

As to “Ctf18 W736A (two-hybrid fusion) (from UniProt P49956)”, the binding result was “binds”.

Take “Ctf18 W740A (two-hybrid fusion) (from UniProt P49956)”: the binding result was “binds”.
